From PubChem BioAssay AID1794844 (National Center for Advancing Translational Sciences (NCATS), 2023)
In all, about 2,800 compounds went through this assay and fewer than 10 were called active. About 7% were inconclusive and are not listed. Calls come from the whole dose curve; as a rule, active = well fitted inhibition curve with a large enough effect; inconclusive = small, poorly fitted or top-dose-only effect; inactive = no such curve, though single readings can be large or run the other way. This is one part of the list.

Protein sequences, listed by entry. Tags and fused reporters are not part of them. Lines headed by an entry give the natural chain unless they say otherwise; changes in a name come on top.
UniProt C7C422: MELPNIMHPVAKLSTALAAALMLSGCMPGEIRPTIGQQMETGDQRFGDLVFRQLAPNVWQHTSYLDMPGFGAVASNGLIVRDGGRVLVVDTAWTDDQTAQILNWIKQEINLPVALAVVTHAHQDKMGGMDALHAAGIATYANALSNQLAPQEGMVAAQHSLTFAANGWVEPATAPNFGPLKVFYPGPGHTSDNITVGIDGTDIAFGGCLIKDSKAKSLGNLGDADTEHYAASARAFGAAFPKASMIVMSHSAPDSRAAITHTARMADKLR

These compounds were tested against Metallo-beta-lactamase type 2 (Klebsiella pneumoniae) (UniProt C7C422) (assay: qHTS to identify inhibitors of the New Delhi Metallo-beta-lactamase (NDM): Nitrocefin screen against the machine-based learning selections.). Conditions: NDM-1 enzyme, nitrocefin hydrolysis, absorbance 485 nm; activity, negative = inhibition: at the top concentration.
Method in brief: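 Hydrolysis by 2 nM NDM-1 was followed by absorbance after >30 min compound preincubation in HEPES pH 7.0 buffer with 1 uM Zn2SO4. For nitrocefin (16.7 uM, 15 min, 485 nm) and meropenem (50 uM, 30 min, 300 nm), each substrate ran on separate plates.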
Note: % of control where 0% means no effect.

Row | Compound | activity, negative = inhibition
1 | Cc1ccc(S(N)(=O)=O)cc1C(=O)N1CCC2(CCCNC2=O)C1 (centres undefined) | inactive: 2.43%
2 | Cn1cnnc1CC1CCN(C(=O)c2cn3ccsc3n2)CC1 | inactive: -7.6%
3 | Cc1ccc2c(c1)nc1n2[C@@H](CNC(C)C)COC1 | inactive: -5.33% [at 76.7 µM]
4 | O=C(NC[C@H]1O[C@@H](CC(=O)N2CCN(c3ccc(F)cc3)CC2)[C@H](O)[C@@H]1O)c1ccco1 | inactive: -8.68%
5 | Cc1noc(C)c1S(=O)(=O)N1CCCC(Cc2nncn2CC2CC2)C1 (centres undefined) | inactive: -8.28%
6 | O=C(N[C@@H]1CCN(Cc2ccc3nsnc3c2)C[C@H]1O)c1cnccn1 | inactive: -1.34%
7 | CCC[S+](=O)([O-])N1CCN(C(=O)N2CC3CC(C2)[C@H]2CCCC(=O)N2C3)CC1 (some centres undefined) | inactive: 0.734%
8 | COc1ccc(C(=O)N[C@@H]2CN(C(=O)NC3CCCCC3)CCC[C@H]2O)cc1 | inactive: -1.49% [at 57.5 µM]
9 | COC(=O)c1ccc2nc(C[C@@H]3C[C@@H](C(C)C)[C@H](CNC4CCOCC4)C=C3C)[nH]c2c1 | inactive: 6.01%
10 | Cn1cncc1-c1nnc([C@H]2CCN(C(=O)c3ccncc3)C2)o1 | inactive: -1.38% [at 57.5 µM]
11 | O=C(NCC1CCCO1)c1ccnc(-c2nnc3ccc(Nc4ccccc4)nn23)c1 (centres undefined) | inactive: -2.52% [at 57.5 µM]
12 | O=C(c1[nH]nc2c1COc1ccccc1-2)N1CCCC(Cc2nc(C3CCOCC3)no2)C1 (centres undefined) | inactive: 2.44%
13 | Oc1ccccc1CN1CCNc2cnc(Nc3ccccc3)cc2C1 | inactive: -4.55% [at 57.5 µM]
14 | Cc1ccccc1-c1[nH]nc2ncc(-c3ccsc3)nc12 | inactive: 15.8% [at 76.7 µM]
15 | Cc1ccccc1C(=O)Nc1ccc([C@H]2OCC(=O)N(C)[C@@H]2CO)cc1 | inactive: -0.0308% [at 57.5 µM]
16 | CCOc1ncccc1C(=O)N1CCc2[nH]nc(-c3cccc(F)c3)c2C1 | inactive: -4.41%
17 | CCCC(C)N1CC2(CCN(C(=O)c3cc(Cl)ccc3C)CC2)OC1=O (centres undefined) | inactive: 7.19%
18 | O=C(c1csc(Cc2ccccc2)n1)N1CCC2(CCNCC2)CC1 | inactive: -12.8%
19 | N#Cc1cccc(CN2CC[C@H](c3nc4ccccc4[nH]3)C2)c1 | inactive: 1.73% [at 57.5 µM]
20 | CN(Cc1ccsc1)C(=O)c1ccc(C#CC(C)(C)O)o1 | inactive: 3.12%
21 | FC(F)(F)c1ccnc(-c2cc(NCc3ccccn3)nc3[nH]ccc23)c1 | inactive: -6.4%
22 | COC(=O)C1CCN(CC(O)COc2cccc(CN3CC=C(C)CC3)c2)CC1 (centres undefined) | inactive: -5.12%
23 | CC(C)c1cccc(-c2cc(NCc3ccccn3)nc3[nH]ccc23)n1 | inactive: 9.13%
24 | Cc1nnc2n1C(C)CN(C(=O)CCc1nc(-c3ccncc3)no1)C2 (centres undefined) | inactive: -5.72%
25 | O=C1Nc2ccc(-c3ccccc3F)cc2C(=O)N2CC[C@H](NS(=O)(=O)c3cccs3)[C@@H]12 | inactive: 2.37%

Structural class, those above containing a furan ring, fused or not.
Row | Compound | activity, negative = inhibition
4 | O=C(NC[C@H]1O[C@@H](CC(=O)N2CCN(c3ccc(F)cc3)CC2)[C@H](O)[C@@H]1O)c1ccco1 | inactive: -8.68%
20 | CN(Cc1ccsc1)C(=O)c1ccc(C#CC(C)(C)O)o1 | inactive: 3.12%

Remaining list, next part

Row | Compound | activity, negative = inhibition
26 | COC(=O)[C@@H]1Cc2ncn(C)c2CN1C(=O)c1ccc(-c2ccccc2)cc1 | inactive: -7.88% [at 57.5 µM]
27 | CCn1cc(CN2CCc3ccccc3C2)ccc1=O | inactive: -6.53%
28 | O=C(Cc1c[nH]c2ncc(-c3ccc(Cl)cc3)cc12)NCc1cccnc1 | inactive: 5.86% [at 57.5 µM]
29 | CC(=O)Nc1ccc(CN2CCN3C(=O)N(Cc4ccc(C)cc4)C[C@H]3C2)cc1 | inactive: -0.792% [at 57.5 µM]
30 | CCc1cc(=O)n(CC(=O)Nc2cc(OC)cc(OC)c2)c(N2CCOCC2)n1 | inactive: 9.73%
31 | COc1cccc(N2CC(C(=O)NCC(F)(F)F)NC2=O)c1 (centres undefined) | inactive: -2.9% [at 57.5 µM]
32 | CC(=O)NC1(C)CCCN(Cc2cc(-c3cccc(C(F)(F)F)c3)cs2)C1 (centres undefined) | inactive: 7.14% [at 57.5 µM]
33 | O=C(NCCc1nccc(-c2ccccc2)n1)c1ccc2cccc(F)c2n1 | inactive: -6.54%
34 | OCCc1ccc(Nc2cnc3ccc(-c4ccc(F)cc4)nn23)cc1 | inactive: -26.7% [at 57.5 µM]
35 | CC(=O)c1ccc(NC(=O)O[C@@H]2CO[C@H]3[C@@H]2OC[C@@H]3NC(=O)c2ccco2)cc1 | inactive: -2.97% [at 57.5 µM]
36 | CCn1c(CO)nnc1C1CC(NC(=O)Cc2c[nH]c3ccccc23)C1 (centres undefined) | inactive: -7.51%
37 | CNc1ncccc1C(=O)N1CC[C@@H](c2ccc3c(c2)OCO3)[C@H](O)C1 | inactive: -1.7%
38 | CCOC(=O)C1CCN(Cc2ccccc2OCC(O)CN(C)C2CCCCC2)CC1 (centres undefined) | inactive: 2.36%
39 | c1ccc2sc([C@H]3CCN(C4CCC4)C3)nc2c1 | inactive: 0.891% [at 76.7 µM]
40 | CC(=O)Nc1cccc(-c2ccc3ncn(Cc4ccccn4)c(=O)c3n2)c1 | inactive: -7.79% [at 57.5 µM]
41 | COc1cc2c(cc1CN1CCCC(O)(CN(C)C)C1)OCCCO2 (centres undefined) | inactive: 5.15%
42 | COc1ccccc1C(O)c1nc(Nc2ccc(Cl)cc2)n[nH]1 (centres undefined) | inactive: 3.08% [at 57.5 µM]
43 | NC(=O)[C@H](Cc1cccs1)NC(=O)C1=C[C@@H](NC(=O)NC2CCCCC2)[C@@H](O)[C@H](O)C1 | inactive: -3.43%
44 | C=CCC1(CO)CCCN(CCOc2ccc(C)cc2Cl)C1 (centres undefined) | inactive: 5.8%
45 | C=CCC1(CO)CCCN(CC(=O)NCCc2ccc(Cl)cc2)C1 (centres undefined) | inactive: 0.599%
46 | CNC(=O)Cn1nc(C(=O)N2CCCC(CO)(CC3CC3)C2)cc1C (centres undefined) | inactive: 7.56%
47 | COc1ccc(-c2nc(C(C)C)nc3c2CCN(C(=O)C2CCCC2)CC3)cc1 | inactive: 4.96%
48 | CN(C)c1nccnc1OC1CCN(C(=O)CCCc2ccccc2)C1 (centres undefined) | inactive: 2.8%
49 | O=C(N[C@H]1CCN2C(=O)c3cc(-c4cccc(C(F)(F)F)c4)ccc3NC(=O)[C@@H]2C1)c1ccncc1 | inactive: -5.53%
